# In article PMC7862700:
# Protein sequences, listed by entry. Tags and fused reporters are not part of them. Lines headed by an entry give the natural chain unless they say otherwise; changes in a name come on top.
# UniProt Q00613: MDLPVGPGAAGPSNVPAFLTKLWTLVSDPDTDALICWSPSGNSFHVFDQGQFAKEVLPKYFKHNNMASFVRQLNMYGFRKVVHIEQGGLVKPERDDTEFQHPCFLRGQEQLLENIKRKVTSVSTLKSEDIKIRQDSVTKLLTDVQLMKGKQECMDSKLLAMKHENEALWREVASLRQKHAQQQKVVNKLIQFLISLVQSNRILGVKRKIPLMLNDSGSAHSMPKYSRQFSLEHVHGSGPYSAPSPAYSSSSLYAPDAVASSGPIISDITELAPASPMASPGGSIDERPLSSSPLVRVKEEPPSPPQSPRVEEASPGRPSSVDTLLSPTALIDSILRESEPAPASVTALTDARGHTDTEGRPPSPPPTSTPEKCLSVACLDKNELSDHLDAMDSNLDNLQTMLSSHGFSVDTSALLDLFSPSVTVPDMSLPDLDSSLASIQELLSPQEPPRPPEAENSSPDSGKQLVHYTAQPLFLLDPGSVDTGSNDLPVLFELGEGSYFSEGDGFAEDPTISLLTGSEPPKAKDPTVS
# The entries are a selection whose mix differs from that of the whole data set. For part of these data: At the low end of the ranking the order means little. The list shows a part of the results. For part of these data: The source does not settle which construct or isoform was used.
# What was measured:
# HSF1 = HSF1 (UniProt Q00613); experiment: DAPPL (digital affinity profiling via proximity ligation, sequencing); conditions: 10 mM Tris-HCl pH 7.5, 50 mM NaCl, 1 mM DTT, 4% glycerol, room temperature, 30 min; GST-TFs on glutathione beads, 16-mer random dsDNA library, 0.1% …; high values mean tight binding; double strand, one strand shown; scale: fold enrichment (6-mer frequency, TF over GST control)
# ELF2 = target: T1, ELF2 (UniProt Q15723); experiment: as above; conditions: 10 mM Tris-HCl pH 7.5, 50 mM NaCl, 1 mM DTT, 4% glycerol, room temperature, 30 min; GST-TFs on glutathione beads, 16-mer random dsDNA library, 0.1% …; high values mean tight binding; double strand, one strand shown; scale: fold enrichment (6-mer frequency, TF over GST control)
# T1 sequence: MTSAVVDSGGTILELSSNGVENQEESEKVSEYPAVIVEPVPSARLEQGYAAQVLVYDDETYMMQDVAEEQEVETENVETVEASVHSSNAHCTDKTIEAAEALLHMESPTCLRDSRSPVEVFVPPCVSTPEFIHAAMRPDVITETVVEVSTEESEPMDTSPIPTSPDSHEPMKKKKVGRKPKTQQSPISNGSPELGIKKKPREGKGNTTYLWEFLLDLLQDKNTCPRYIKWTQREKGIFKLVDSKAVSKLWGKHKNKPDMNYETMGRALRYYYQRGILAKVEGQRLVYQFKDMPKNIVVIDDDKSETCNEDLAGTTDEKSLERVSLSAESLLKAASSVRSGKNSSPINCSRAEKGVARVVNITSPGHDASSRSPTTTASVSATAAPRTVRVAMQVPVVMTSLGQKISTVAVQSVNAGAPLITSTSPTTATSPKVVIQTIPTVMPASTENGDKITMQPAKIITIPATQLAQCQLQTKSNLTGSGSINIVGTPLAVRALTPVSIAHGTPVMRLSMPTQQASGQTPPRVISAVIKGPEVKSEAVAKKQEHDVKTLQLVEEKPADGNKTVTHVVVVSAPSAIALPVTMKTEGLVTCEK
Sequence,binding signal (HSF1),binding signal (ELF2)
ATGTCA,0.929,1.09
TTCAGT,0.946,1
GGCCCC,0.783,0.933
AATGGC,1.28,1.38
TCATTT,1.14,1.41
TGTTAA,1.3,1.09
GTCTTT,1.22,1.19
ATTATT,1.8,1.21
TTATTT,1.64,1.49
TTCGAA,1.93,1.18
CCCACA,0.872,1.09
CGCGAC,0.992,1.05
TGACCT,1.5,1.65
TGCAAC,1.06,1.29
ACCAAC,0.957,1.23
AACCTC,1.17,1.15
CGACTC,1.37,1.33
ATGCGG,0.822,1.53
CTGTAA,1.09,1.04
CCTCAC,0.97,1.17
CCTACA,1.07,1.2
TAATAA,1.76,1.2
TTGCAC,1.1,1.2
CAACAA,0.887,1.04

Sequence,binding signal (HSF1),binding signal (ELF2)
CCGGCA,1.01,1.49
GTAACA,0.844,1.15
CTGCAC,0.957,1.15
GGCCTA,1.33,1.16
TGGCCT,1.32,1.34
CGACAC,0.867,1.1
TATGGC,1.2,1.16
TTAACC,1.8,1.3
CGACCG,0.898,1.19
CCATTC,1.15,1.05
AATCGA,1.38,0.999
CAACCA,0.901,1.07
GTTCAT,0.986,1.11
CATCCG,0.928,2.55
ATACCG,0.825,1.27
TTAGGG,1.48,1.11
CTATCT,1.4,1.29
CTGTCA,0.941,1.06
CGCTCA,0.994,1.1
CGATTT,1.38,1.24
CCGCGT,0.842,1.22
CACTGG,1.16,1.01
TGGTAG,1.06,0.975
TACCGC,0.94,1.12

# Some of the entries above, set out differently.
Sequence | binding signal (HSF1) | binding signal (ELF2)
CTGCAC | 0.957 | 1.15
TTAGGG | 1.48 | 1.11
CTATCT | 1.4 | 1.29
CGCTCA | 0.994 | 1.1

# (listing goes on)

Sequence,binding signal (HSF1),binding signal (ELF2)
TTAACG,1.73,1.12
TCTTTA,1.5,1.17
TACGTT,1.24,1.21
TTCTCC,1.98,1.52
ACCAAT,1.16,1.27
TAAAAC,1.32,1.18
ACATTG,0.953,1.08
CCGATC,1.23,1.18
ATATGT,0.984,1.14
CTCATT,1.36,1.43
ATATGG,1.17,1.26
TATGGA,1.33,1.1
GATCTT,1.62,1.24
CTCAGG,0.973,0.993
TTGACC,1.16,1.39
AGTTCC,1.34,2.9
GCTGTA,1,1.11
ACCCTA,1.18,1.22
TGTGTT,0.883,1.09
ATCCCT,1.64,1.21
TAGCGG,0.99,1.13
TGCACG,0.972,1.02
TGCCCG,1.01,1.15
TGAAAA,1.14,1.03

Sequence,binding signal (HSF1),binding signal (ELF2)
ATCCGA,1.56,1.18
AAAGCG,0.989,1.08
TGTGAC,0.799,1.08
TTCCTT,1.61,2.39
CCTGGT,1.08,1.53
TATCAG,1.11,1.06
CCATGC,0.87,1.02
CTTGCA,1.12,1.24
GTGGCT,1.05,1.13
CCGCCC,0.932,1.26
CTTCGC,1.63,1.34
TCGATC,1.54,1.09
GCGCTC,0.982,1.09
ATCAGC,1.01,0.924
TCATGC,0.983,1.11
ACTTTC,2.49,1.57
ACCCCG,0.968,1.32
GGTCCT,0.749,0.945
ACGGCC,0.81,0.975
TTTTGT,1.27,1.35
GGTCTT,1.05,1.13
CTGGTT,1.24,1.41
TGCCTG,1.05,1.14
CACGCC,0.938,1.16

# Retrieved one by one from the entries so far, 2 records:
Sequence,binding signal (HSF1),binding signal (ELF2)
GTGGCT,1.05,1.13
TCATGC,0.983,1.11

# Later entries

Sequence,binding signal (HSF1),binding signal (ELF2)
GCCGAC,0.836,1.04
ATATGA,0.999,1.01
ATATCG,1.14,1.13
GTCTAC,0.838,1.07
GTTCCG,1.05,2.8
TGCTAC,1.03,1.25
AAGTGG,0.927,1.21
ACACTT,1.11,1.84
CTTCAT,1.34,1.39
CGTTAC,0.899,1.1
GAAAAG,1.22,1.08
TTTATG,1.37,1.28
TTCCCT,1.52,1.79
GGTTTT,0.993,1.12
ACTCTC,1.55,1.31
CCGCCT,1.08,1.67
TAGTCC,1.21,1.07
CTCAAA,1.24,1.13
CCCATT,1.15,1.28
CGAATA,1.87,1.16
TGTCCA,0.988,1.1
TGCGTA,1.06,1.05
TTTAAA,1.64,1.21
TACGAT,1.13,1.06
